Data taken from US20240325562A1, “INTERNALIZING BINDING MOLECULES” (LinXis B.V., priority 2020, published 2024).
Results are given in words; binding and its absence hold for the method and conditions named. Some binding calls cover weakened binding; strength is not graded here. Each block holds one binder with its values, some of them ahead of it.

By UniProt entry, the sequences of proteins in these tests, tags left out.
UniProt P11717: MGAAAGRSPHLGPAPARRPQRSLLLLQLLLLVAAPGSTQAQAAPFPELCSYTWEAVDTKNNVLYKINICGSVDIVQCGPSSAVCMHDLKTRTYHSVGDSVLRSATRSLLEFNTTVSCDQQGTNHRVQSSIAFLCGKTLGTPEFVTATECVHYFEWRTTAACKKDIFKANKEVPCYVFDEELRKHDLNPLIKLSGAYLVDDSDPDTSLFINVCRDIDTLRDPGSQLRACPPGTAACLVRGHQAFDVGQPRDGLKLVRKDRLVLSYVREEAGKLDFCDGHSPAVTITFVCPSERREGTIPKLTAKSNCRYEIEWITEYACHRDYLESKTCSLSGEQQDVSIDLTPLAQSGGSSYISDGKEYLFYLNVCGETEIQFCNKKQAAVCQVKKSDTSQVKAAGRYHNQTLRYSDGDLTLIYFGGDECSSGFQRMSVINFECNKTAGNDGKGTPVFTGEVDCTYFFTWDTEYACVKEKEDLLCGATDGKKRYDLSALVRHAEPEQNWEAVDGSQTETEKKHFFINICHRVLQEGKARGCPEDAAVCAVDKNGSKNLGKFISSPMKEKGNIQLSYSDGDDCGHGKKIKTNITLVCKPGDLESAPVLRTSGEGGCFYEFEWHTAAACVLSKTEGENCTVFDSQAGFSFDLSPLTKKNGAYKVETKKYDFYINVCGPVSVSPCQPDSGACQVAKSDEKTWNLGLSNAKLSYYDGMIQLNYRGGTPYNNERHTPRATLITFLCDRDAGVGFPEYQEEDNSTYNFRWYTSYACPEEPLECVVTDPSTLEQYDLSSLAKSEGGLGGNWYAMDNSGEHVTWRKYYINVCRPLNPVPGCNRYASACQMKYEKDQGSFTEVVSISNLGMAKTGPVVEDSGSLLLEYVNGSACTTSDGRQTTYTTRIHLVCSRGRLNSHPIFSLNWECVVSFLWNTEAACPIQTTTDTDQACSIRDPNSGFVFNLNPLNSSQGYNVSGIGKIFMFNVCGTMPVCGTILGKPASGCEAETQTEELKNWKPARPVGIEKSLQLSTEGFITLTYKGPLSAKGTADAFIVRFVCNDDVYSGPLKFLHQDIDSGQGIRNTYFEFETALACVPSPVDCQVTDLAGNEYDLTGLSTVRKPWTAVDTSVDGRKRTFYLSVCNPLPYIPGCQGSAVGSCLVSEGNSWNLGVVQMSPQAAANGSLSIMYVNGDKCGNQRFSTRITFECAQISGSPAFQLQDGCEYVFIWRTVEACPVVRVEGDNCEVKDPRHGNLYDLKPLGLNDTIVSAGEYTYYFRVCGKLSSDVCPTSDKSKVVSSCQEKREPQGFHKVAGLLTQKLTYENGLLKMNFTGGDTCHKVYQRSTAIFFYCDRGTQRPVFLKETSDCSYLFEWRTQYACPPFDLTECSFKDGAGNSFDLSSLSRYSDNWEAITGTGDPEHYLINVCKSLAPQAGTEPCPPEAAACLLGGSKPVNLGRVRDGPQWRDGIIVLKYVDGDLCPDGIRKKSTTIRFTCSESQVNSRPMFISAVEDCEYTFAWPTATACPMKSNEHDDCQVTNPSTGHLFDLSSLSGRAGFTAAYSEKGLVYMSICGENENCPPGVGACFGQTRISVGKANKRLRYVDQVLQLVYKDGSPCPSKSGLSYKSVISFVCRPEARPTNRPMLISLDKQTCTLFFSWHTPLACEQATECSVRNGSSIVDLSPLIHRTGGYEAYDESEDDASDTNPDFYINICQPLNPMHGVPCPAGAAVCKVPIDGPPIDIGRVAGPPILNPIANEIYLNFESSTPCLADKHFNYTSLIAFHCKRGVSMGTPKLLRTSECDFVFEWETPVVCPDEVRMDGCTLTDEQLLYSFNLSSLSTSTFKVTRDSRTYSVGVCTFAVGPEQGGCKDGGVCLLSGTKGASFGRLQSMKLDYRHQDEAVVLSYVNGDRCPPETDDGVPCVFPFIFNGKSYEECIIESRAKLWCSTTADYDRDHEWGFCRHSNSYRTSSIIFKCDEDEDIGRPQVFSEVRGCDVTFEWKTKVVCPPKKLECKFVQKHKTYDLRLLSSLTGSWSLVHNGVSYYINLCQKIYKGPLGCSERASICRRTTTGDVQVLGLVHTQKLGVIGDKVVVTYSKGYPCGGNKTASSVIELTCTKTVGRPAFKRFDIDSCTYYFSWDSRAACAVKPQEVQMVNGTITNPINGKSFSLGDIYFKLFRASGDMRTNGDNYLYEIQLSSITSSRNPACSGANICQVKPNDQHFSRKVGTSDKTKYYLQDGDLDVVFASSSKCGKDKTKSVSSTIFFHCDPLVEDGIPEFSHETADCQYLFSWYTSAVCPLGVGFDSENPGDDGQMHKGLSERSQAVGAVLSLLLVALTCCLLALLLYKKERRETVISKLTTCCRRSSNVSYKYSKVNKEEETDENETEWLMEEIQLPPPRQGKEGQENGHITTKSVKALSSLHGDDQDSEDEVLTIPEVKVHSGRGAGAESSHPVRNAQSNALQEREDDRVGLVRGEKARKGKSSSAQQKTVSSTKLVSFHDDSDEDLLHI

Tests used:
[1] = biological target: T1, recombinant rPDGFRB ectodomain (rat) (UniProt Q05030); assay: phage ELISA and binding assay on rPDGFRB-ECD; values only in FIG. 6
T1 sequence (looked up): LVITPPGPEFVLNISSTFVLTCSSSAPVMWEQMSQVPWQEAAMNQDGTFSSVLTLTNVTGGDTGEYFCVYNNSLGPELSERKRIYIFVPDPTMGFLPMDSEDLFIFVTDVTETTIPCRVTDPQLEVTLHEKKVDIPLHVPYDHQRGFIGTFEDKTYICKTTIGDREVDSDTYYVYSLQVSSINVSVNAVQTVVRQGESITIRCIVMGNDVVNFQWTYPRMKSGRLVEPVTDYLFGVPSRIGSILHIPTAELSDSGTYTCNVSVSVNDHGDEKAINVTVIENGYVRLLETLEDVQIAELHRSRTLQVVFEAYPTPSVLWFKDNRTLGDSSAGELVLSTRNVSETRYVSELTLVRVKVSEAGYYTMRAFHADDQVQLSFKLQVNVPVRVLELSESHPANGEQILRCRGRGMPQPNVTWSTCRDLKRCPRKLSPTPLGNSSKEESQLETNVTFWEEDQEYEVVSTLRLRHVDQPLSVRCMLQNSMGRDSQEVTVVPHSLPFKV

[2] = biological target: recombinant hPDGFRB ectodomain (human) (UniProt P09619); assay: phage ELISA and binding assay on hPDGFRB-ECD; values only in FIG. 5
[3] = biological target: recombinant human extracellular domain of IGF2R (human) (UniProt P11717); assay: phage ELISA on hIGF2R-ECD

binding [1]: binds
B1: SP32P (VHH)
VHH: EVQLVESGGGTVQAGDSLRLSCTASGRTFSTYTMGWFRQAPGKERVVVAVNTWNNFTVHQPSVKGRFTMSRDNTKNSIYLQMDSLKPEDTAVYYCAASAKGTARYDYWGQGTQVTVSS

binding [2]: binds
B2: SP17P (VHH)
VHH: EVQLVESGGGLVQPGGSLRLSCAASGLTFVNYAMGWFRQAPGKERELVAGIASSGRIYYADSVAGRFTISRDNARNTVNLQMNSMKPEDTAVYYCAGRRSFSSTSAADYNYWGQGTQVTVSS

binding [2]: binds
B3: SP11P (VHH)
VHH: EVQLVESGGGLVQAGDSLRLSCAASGRTFSSYPIAWFRQAPGKEREFVAAITSSGLTTYYANVVKGRFAISRDNAKDTVYLQMNSLKPEDTAVHYCATSNGFLSGRDIYQHNKYIYWGQGTQVTVSS

binding [2]: binds
B4: SP21P (VHH)
VHH: EVQLVESGGGLVQPGGSLRLSCVVSGSSFSSYTMGWFRRAPGKQRELVAGVSTVGDTAAADSVKGRFTISRDNAKNTVYLQMNSLKPEDTAVYYCNTYPHAYLEWGQGTQVTVSS

binding [1]: binds
B5: SP35P (VHH)
VHH: EVQLVESGGGLVQPGGSLRLSCAASGSLGSNNPMAWYRQAPGKERELVASISSAYRTHYADFVKGRFTISRDSPKNTVSLQMNNLKPEDTAVYYCGIFVSARNYWGKGTQVTVSS

binding [2]: binds
B6: SP23P (VHH)
VHH: EVQLVESGGELVQAGGSLRLSCAVSGRTLTSYPMGWFRQAPGKEREFVAAISWSGGDTMYADSVKGRFTISRDNSKNTVYLQMNSLKPEDTADYYCARRRYSSGISRHLVDYEYWGQGTQVTVSS

binding [1]: binds
B7: SP25P (VHH)
VHH: EVQLVESGGGLVQPGGSLRLSCAASESIFSINAMGWYRQTPGKQREMVASITPGGFTIYADSVKGRFTISRDNAKNTLYLQMNNLRFEDTAVYYCNAFAGSATSYHDFGSWGQGTQVTVSS

binding [3]: binds
B8: 13A10 (VHH)
VHH: EVQLVESGGGLVQAGGSLRLSCSASGSIFSINYMAWYRQEPGKEREVVASMSWRGDSTYLADSVQGRFTISRNNAKNTMYLQMNSLKPEDTALYYCKANNYWGQGTQVTVSS

binding [2]: binds
B9: SP15P (VHH)
VHH: EVQLVESGGGLVQAGGSLRLSCAASGRAFGGPYMAWFRQTPGKGREFVAAISPSSVYTFYQDSVKGRFTISRDNTKNTAYLQMNSLKPEDTAVYYCAAEAAGEVRLETSYKYWGQGTQVTVSS

binding [1]: binds
B10: SP29P (VHH)
VHH: EVQLVESGGGLVQAGDSLRLSCTVSGRTFNTYVTGWFRQAPGKEREFVAAIHQIGSTYYRNSVKGRFTISRDGAKDTVYLQMNNLKPEDSAVYYCAAGNGGYVMSDIAYGTWGQGTQVTVSS
